# Laboratory results: publication PMC7819943, “Rice protein-binding microarrays: a tool to detect cis-acting elements near promoter regions in rice”
# Some of the results follow.
# Target: T1, OsSMF1 (Oryza sativa, UniProt Q6ZLB0 1-436)
# T1 sequence: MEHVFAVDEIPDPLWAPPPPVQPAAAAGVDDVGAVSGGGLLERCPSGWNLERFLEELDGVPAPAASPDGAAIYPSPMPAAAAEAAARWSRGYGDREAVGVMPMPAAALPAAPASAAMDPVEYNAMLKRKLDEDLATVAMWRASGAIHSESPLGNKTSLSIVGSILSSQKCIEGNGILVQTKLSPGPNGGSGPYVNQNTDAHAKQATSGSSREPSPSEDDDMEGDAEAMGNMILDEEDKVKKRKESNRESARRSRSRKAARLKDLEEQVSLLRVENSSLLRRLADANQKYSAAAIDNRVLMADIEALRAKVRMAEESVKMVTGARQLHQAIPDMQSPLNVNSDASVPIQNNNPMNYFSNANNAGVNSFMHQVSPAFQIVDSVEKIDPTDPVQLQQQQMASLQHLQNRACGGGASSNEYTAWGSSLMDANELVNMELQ
# Experiment: protein-binding microarray (RPBM); PBS, 2% BSA, 51.3 ng/ul salmon testes DNA, 50 uM zinc acetate, 200 nM TF, 25 C, 1 h; high values mean tight binding
# Conditions: protein: recombinant; tags: N-terminal polyhistidine and DsRed monomer fusion (pET32a); chain copies: 2; label: CyDye5-dUTP incorporated in the synthesized complementary strand; 3' TTTTT single-stranded linker to array surface; dsDNA, one strand shown
# Outline: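 A custom Agilent array was converted to double-stranded form by primer extension with Cy5-dUTP and blocked with 2% BSA. Protein at 200 nM in PBS with 2% BSA, salmon testes DNA and 50 µM zinc acetate was applied for 1 h at 25 °C, followed by washing. The proteins were polyhistidine–DsRed N-terminal fusions of transcription factors, expressed in E. coli BL21-CodonPlus and Ni–NTA-purified. The binding signal is per-feature fluorescence intensity (arbitrary units) from an Axon 4000B scanner.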
row,Sequence,binding signal
1,TTCGATATATTACGCCCAAGGGGAGCAAACACGTATACTGCGGAGTCACCTAGTGCAG,27900 fluorescence intensity (a.u.)
2,AAAACGATTACACTATACACTATTGAGAATGAGTTCTTTACGGAGTCACCTAGTGCAG,29500 fluorescence intensity (a.u.)
3,GAAAGACTTGCAAGTTGCCATCAATGGCATCGAAAGATGCCGGAGTCACCTAGTGCAG,7840 fluorescence intensity (a.u.)
4,GCTCAATCCCCGACCACCACGTGGCATCCTCGATGCCTCGCGGAGTCACCTAGTGCAG,24000 fluorescence intensity (a.u.)
5,GATGAGGCTCCGAGTCGTCTGATGGCCACGTTTATCGGTTCGGAGTCACCTAGTGCAG,4430 fluorescence intensity (a.u.)
6,GCGTCAAACTGCTACGCGTGATTCTTAATTCTTCTTGCTCCGGAGTCACCTAGTGCAG,30900 fluorescence intensity (a.u.)
7,AGCGCTGGGTACACCCACGACGGGCCTTCCGGACGCGGTGCGGAGTCACCTAGTGCAG,19000 fluorescence intensity (a.u.)
8,ATCTAGCGACGAGAAGAGAGGAAGGGAGGGAGGCGTCACGCGGAGTCACCTAGTGCAG,3830 fluorescence intensity (a.u.)
9,AGCGATCTCTTTAGTAGGTATGTGCCATGTCACCGTTCACCGGAGTCACCTAGTGCAG,15900 fluorescence intensity (a.u.)
10,GCCGCAAATCCAGGCCCCAAGCGGGATGCCACGCCGAGCCCGGAGTCACCTAGTGCAG,3530 fluorescence intensity (a.u.)
11,GTTCAATTCCTGCTGGATGCACGTGAACCGGAACGTTCCACGGAGTCACCTAGTGCAG,52000 fluorescence intensity (a.u.)
12,CAGCAGCAGCAGCAGCCGCCGCCTCCGTCCGTCCGTCCGTCGGAGTCACCTAGTGCAG,3230 fluorescence intensity (a.u.)
13,GCCCATATAGCTTCTGCGAGCCATGTGGCAAGTATCAAAGCGGAGTCACCTAGTGCAG,3630 fluorescence intensity (a.u.)
14,TTTATGATAACTTTGAGTCATATCATTTTGGTAAGTCCTACGGAGTCACCTAGTGCAG,3140 fluorescence intensity (a.u.)
15,AAAGTTTCTGTCCAAATTGGACAGTTGTGACAGTCATCACCGGAGTCACCTAGTGCAG,3670 fluorescence intensity (a.u.)
16,TCCAATTCACAATTATAAATGATGTGGTGGCACCATGGCACGGAGTCACCTAGTGCAG,3310 fluorescence intensity (a.u.)
17,TGCTCCAGCTTATGATTGCCACCTTCCAATTGAATGCCGGCGGAGTCACCTAGTGCAG,24400 fluorescence intensity (a.u.)
18,ATCTTTTGGAGATGTTTATAGTGATATAGTGCACGTGTGTCGGAGTCACCTAGTGCAG,3700 fluorescence intensity (a.u.)
19,ACATCCCTTGGTCATGAACTCATGATCGAGTGGTCCAAATCGGAGTCACCTAGTGCAG,4310 fluorescence intensity (a.u.)
20,TCGTGCTCCTCGCCGTCACACTCGCCGCCGCCGCCGCCACCGGAGTCACCTAGTGCAG,3520 fluorescence intensity (a.u.)
21,GATTCTTCCGGAGTTCGTGACCACGTCAGAGTTTTCCGCCCGGAGTCACCTAGTGCAG,11700 fluorescence intensity (a.u.)

# Two entries from above, set out differently:
row | Sequence | binding signal
15 | AAAGTTTCTGTCCAAATTGGACAGTTGTGACAGTCATCACCGGAGTCACCTAGTGCAG | 3670 fluorescence intensity (a.u.)
16 | TCCAATTCACAATTATAAATGATGTGGTGGCACCATGGCACGGAGTCACCTAGTGCAG | 3310 fluorescence intensity (a.u.)

# Additional results

row,Sequence,binding signal
1,GGTTATAGGGCTTGTTTGGTTCTTTACCCTACCAATTCATCGGAGTCACCTAGTGCAG,3220 fluorescence intensity (a.u.)
2,CGGACAAAGGCCACGTCAGATGGCCCTGTAGGTCACAGGCCGGAGTCACCTAGTGCAG,12100 fluorescence intensity (a.u.)
3,CTCGATACAGAGTGAGCGGGGTATGGCAATGACGAGCTATCGGAGTCACCTAGTGCAG,3160 fluorescence intensity (a.u.)
4,TTCAGCTAGAAAATAATAAAATAATGCGTTCGGTGTCATACGGAGTCACCTAGTGCAG,3920 fluorescence intensity (a.u.)
5,GTGTGTGCTGTGGTGGAGAGGAGAAAGGGAGGAAGAAGAGCGGAGTCACCTAGTGCAG,3560 fluorescence intensity (a.u.)
6,TGTCGCTACCCTAGAGGTCGAGGCCAGGAAGGTTAGATCCCGGAGTCACCTAGTGCAG,3560 fluorescence intensity (a.u.)
7,AAAGTCAATATAGGAATACAATTTAGAAGTAACTTAAATTCGGAGTCACCTAGTGCAG,25600 fluorescence intensity (a.u.)
8,TGCTACCAACGGCCGGTATCAATCCATGTCATGTCTGTCACGGAGTCACCTAGTGCAG,4330 fluorescence intensity (a.u.)
9,CTGCCATCTGGGCCCCACGCCTCCCGGCCCCACATGCCAGCGGAGTCACCTAGTGCAG,4510 fluorescence intensity (a.u.)
10,GGAACATAACAAAGTGGGACTTATATATCAGTGACTCAATCGGAGTCACCTAGTGCAG,5790 fluorescence intensity (a.u.)
11,CAAAGGACACGTACACACCAAGAACCAGGACACTAGTAGGCGGAGTCACCTAGTGCAG,5470 fluorescence intensity (a.u.)
12,CGCACGGTGCCCTTGACGTCCACGTCGACCGCGACCACCACGGAGTCACCTAGTGCAG,11800 fluorescence intensity (a.u.)
13,GGCGGCGTCGGGGAAGGAAGAGGGCCGGGGCACCAGCGGCCGGAGTCACCTAGTGCAG,3270 fluorescence intensity (a.u.)
14,TAGTAGTGTATTTAAATAGATAATAAGTAGAATGACTCATCGGAGTCACCTAGTGCAG,5410 fluorescence intensity (a.u.)
15,GTCCAGTACTCCAGTCATGTACCAACCCTTCGTCCCAAGTCGGAGTCACCTAGTGCAG,3220 fluorescence intensity (a.u.)
16,TAGCGAGCTAGCGTGTACACATTTCAATTATATATGGTGCCGGAGTCACCTAGTGCAG,3690 fluorescence intensity (a.u.)
17,CCCCGGGATATGATGGCAATCCCTACGTCACCGGTGACAGCGGAGTCACCTAGTGCAG,6790 fluorescence intensity (a.u.)
18,GCGTGTGCATCTGCCATGTAATCCAAAATATAGCCATGAACGGAGTCACCTAGTGCAG,3660 fluorescence intensity (a.u.)
19,CAAGGTAAGTTAAGTAATGAAGAGGAATAGATGAGAATTGCGGAGTCACCTAGTGCAG,3210 fluorescence intensity (a.u.)
20,GGCTAGAGGGACGGCGCTAACATGTTTGTCATCATCATATCGGAGTCACCTAGTGCAG,4010 fluorescence intensity (a.u.)
21,CGGTTTGTTCACCCAATCTGGTTCGAGCTGACTCGTGTGTCGGAGTCACCTAGTGCAG,4410 fluorescence intensity (a.u.)
